Results as given in the supplement of paper PMC4683952.
Some of the results follow. Cut-off read from the data, not from the text of the source: active = 2 or more and inactive = the rest. This data set is noisy: repeats of one test often differ as much as different tests do.

System: Lgr5 (MarsCy1-Lgr5-EGFP, U2OS)
Assay: cell-surface Lgr5 expression (SCi1 fluorescence, background-subtracted) relative to WT DMSO (fold of DMSO control); higher = more Lgr5 at the plasma membrane
Conditions: U2OS MarsCy1-Lgr5-EGFP stable; treatment time: overnight; library: ActiProbe-5K (TimTec); 25 µM

cell-surface Lgr5 expression, inactive:
Sc1nnc(C2CCCCC2)n1/N=C\c1ccccn1 1.15, Cl.Cl.N=C(N)SCc1csc(N)n1 1.14, Cc1ccc2c(c1)-c1c(sn(-c3ccc(C)c(C)c3)c1=S)C(C)(C)N2Cc1ccccc1 1, c12c(nc[nH]2)ncnc1NC\C=C(/C)C 0.867, c1nc(N2CCOCC2)c2c3c(sc2n1)CCCC3 0.709, CC1CCN(c2nc3c(N)ncnc3n2C2OC(CO)C(O)C2O)CC1 (stereo unspecified) 0.98, O=[N+]([O-])c1cc[n+]([O-])c(Br)c1 0.273, C#CCN1C(=O)C2(NC(CCSC)C3C(=O)N(c4ccccc4)C(=O)C32)c2ccccc21 (stereo unspecified) 1.11, Nc1nc2c(s1)C(c1ccsc1)CC(=O)N2 (stereo unspecified) 0.854, CCCCSc1nnc(C(F)F)n1/N=C/c1cnn(C)c1C 1.51, CNC(=O)c1nn(C)cc1NS(=O)(=O)c1cnn(C)c1C 0.938, Cn1cnnc1SCC(=O)c1cccs1 1.14, COC(=O)/C=C(/C)NCCN/C(C)=C\C(=O)OC 1.2, Cc1sc2nc[nH]c(=O)c2c1C 1.25, CC1(C)CC(=O)C(C(C2=C(O)CC(C)(C)CC2=O)C(O)CO)C(=O)C1 (stereo unspecified) 0.958, CC12C=CC(=O)C=C1CCC1C2C(=O)CC2(C)C1CCC2(O)C(=O)CO (stereo unspecified) 1.32, CCOC(=O)c1csc2c1CCC(C(C)(C)C)C2 (stereo unspecified) 1.1, Cc1nnc(SCC(=O)Nc2nccs2)[nH]c1=O 0.975, CC(NC(=O)c1cc(=O)n(C)c(=O)n1C)C12CC3CC(CC(C3)C1)C2 (stereo unspecified) 1.37, O=c1nc(O)c2sc3nc4c(c(C(F)F)c3c2[nH]1)CCCC4 1.48, CC1=C(C#N)C(NC(=O)c2ccco2)(C(F)(F)F)C(=O)N1 (stereo unspecified) 1.22, NC(=S)N/N=C\c1c2ccccc2cc2ccccc12 1.48, CN1CCN(CC(=O)N2CCCC2=O)CC1 1.43, CS(=O)(=O)Nc1ccc(Br)cc1 1.14, Cc1[nH]c(=O)c(C#N)c(C)c1[N+](=O)[O-] 1.14, CC(C)C(C1=C(O)CC(C)(C)CC1=O)C1C(=O)CC(C)(C)CC1=O (stereo unspecified) 1.28, c1ccc2c(C3Nc4cccc5cccc(c45)N3)cccc2c1 0.978, Clc1nc(NCc2ccco2)nc(NC2CCCCC2)n1 1.22, CC(C)(C)NC(=O)CSc1nnnn1C(C)(C)C 1.39, Cn1c(=O)c2c(nc(Sc3ncn[nH]3)n2C)n(C)c1=O 1.15, O=S(=O)(Nc1ccc(F)c(Cl)c1)c1ccc(Cl)cc1 1.12, O=S(=O)(c1ccc(F)c2ccccc12)N1CCOc2ccccc21 1.38, c1ccc(-c2cn3nc4c(nc3n2)[nH]c2ccccc24)cc1 1.15, Cc1ccc(C(=O)NN(C)C)o1 1.07, CNC(=S)Nc1ccc2c(c1)CCCC2 1.1, Cc1ccsc1/C=N/n1c(S)nnc1-c1ccco1 1.19, Cc1nn(Cc2nc(-c3cccs3)no2)c(C)c1Br 0.923, Cc1cc(=S)n(-c2ccccc2)n1C 1.33, CSc1ccc(/C=N/c2ccccn2)cc1 1.01, O=C(CCCCCC(=O)N/N=C1\CC2CC=CC12)N/N=C1\CC2CC=CC12 (stereo unspecified) 1.1, CCCc1ccn(CCSCC)c1-c1cccs1 1.35, CN(C)/C=N\CCCn1c(N2CCCCC2)nc2c1c(=O)n(C)c(=O)n2C 1.26, Cc1n[nH]c2c1C(c1cc(Br)c(C)s1)C(C#N)=C(N)O2 (stereo unspecified) 1.53, Cc1ccc(C2C3CCCC=C3C(C#N)C(N)C2(C#N)C#N)s1 (stereo unspecified) 1.1, COC(=O)C12CC3CC(CC(C(=O)OC)(C1)C3=O)C2=O 1.23, CCCCO/N=C(\Nc1nc(C)cc(C)n1)NS(=O)(=O)c1ncn[nH]1 1.17, COC(=O)c1nn[nH]c1Cl 1.01, Brc1ccc(C2OCC3(CO2)CC2C=CC3C2)cc1 (stereo unspecified) 1, CN(C)c1nc(N)nc(C2CCCN2S(=O)(=O)c2ccc3ccccc3c2)n1 (stereo unspecified) 1.27, O=c1cc2ncc(-c3n[nH]cc3[N+](=O)[O-])cn2[nH]1 1.03, O=c1cc2ncc(-n3cc([N+](=O)[O-])cn3)cn2[nH]1 1.08, CN(C)c1ccc(Br)c2ccccc12 0.978, O=C(O)CSc1n[nH]c(=O)[nH]c1=O 1.09, Cc1nc(O)nc(O)c1N(C)C 1.06, Cn1c(COc2ccccc2Br)nc2ccccc21 0.989, NN(CCc1ccccn1)C1=NS(=O)(=O)c2ccccc21 0.967, S=C(NC1CCCCC1)N1CCOCC1 1.1, CC(C)(C)S(=O)(=O)c1ccc(Br)cc1 1.45, O=C1NC(=S)S/C1=C/c1ccc(-c2ccc3c(c2)C(=O)C2C=CC=CC2C3=O)o1 (stereo unspecified) 1.29, FC(F)(F)c1ccc(/C=N\n2c(S)nnc2-c2ccccc2)cc1 1.09, C(N1c2c(cccc2)CC1)(/N=C(\N)N)=N.Cl 1.01, CCCCCCCCCCCCCCCCCC(=O)NC1CC(C)CC(C)(C)C1 (stereo unspecified) 1.31, Sc1nnnn1-c1ccccc1 1.49, CN(c1nc2ccccn2c(=O)c1/C=C1/SC(=S)N(CC2CCCO2)C1=O)C1CCCCC1 (stereo unspecified) 1.05, Cl.NC1(COc2ccc(F)cc2)CC1 1.27, COc1ccc2c(c1OC)C(=O)N1c3ccccc3C(=O)OC21 (stereo unspecified) 0.977, COc1ccc(-c2ccc3cc(OC)c(OC)cc3c2O)cc1OC 1.03, Cc1ccc(C2=NNC(c3ccc(F)cc3)S2)cc1 (stereo unspecified) 0.975, CCCCCCCCSc1ncn[nH]1 0.893, Clc1nc(Cl)c2[nH]cnc2n1 1.24, Clc1ccc(Cl)c(N/N=C/c2ccccn2)c1 1.27, CSc1nnc(COc2ccccc2)n1C 1.22, C(=N/C(/N=C/c1cccs1)c1cccs1)/c1cccs1 (stereo unspecified) 1.09, [O-]c1n[n+](-c2ccc(Cl)cc2)no1 1.09, C1=CC2CC1CC2CN1CCN(C2CCC(c3ccccc3)CC2)CC1 (stereo unspecified) 1.09, Clc1ccc(C2Oc3ccccc3C3=C2C(c2ccc(Cl)cc2)n2ncnc2N3)cc1 (stereo unspecified) 1.64, CCSC1=C(C#N)C(=N)n2c1cc1c2CCCC1 1.05, Clc1nc2ccccc2cc1/C=N/Nc1nc2ccccc2nc1Cl 1.19, O=S(=O)(c1ccc2c(c1)oc1ccccc12)N1CCOCC1 1.01, S=C1NC2(CCCCCCC2)NN1c1ccc(Cl)cc1 1.02, O=C(CCCCC(=O)NCCC1=CCCCC1)NCCC1=CCCCC1 0.935, c1ccc(/N=C(/Nc2ccccc2)N2CCOCC2)cc1 1.43, CCc1sc(C2C(C#N)=C(N)Oc3[nH]nc(C)c32)cc1Br (stereo unspecified) 1.12, CSc1nsc(SC)c1CNC(=O)c1ccn(C(F)F)n1 1.03, C(=N/c1ccccc1/N=C\c1c[nH]c2ccccc12)/c1c[nH]c2ccccc12 1.1, C(=C/c1nn2cnnc2s1)/c1ccccc1 1.17, CN(C)S(=O)(=O)Nc1ccc(Oc2ccc3c(c2)OCO3)cc1 1.11, OCCC1CNCCN1CC1CCCCC1 (stereo unspecified) 1.21, CCOc1ccc(-n2sc3c(c2=S)-c2ccc(OC)cc2NC3(C)C)cc1 0.723, O=S(=O)(NC1CCCCCC1)c1ccc(Cl)cc1 1.34, O=C(CCCCC(=O)NNC(=O)C1CCCCC1)NNC(=O)C1CCCCC1 0.958, Cc1cc(S(=O)(=O)NC2CCCCC2)c(C)s1 1.21, N#CCSc1n[nH]c(=O)[nH]c1=O 1.1, CSc1ccc(C(C)=O)s1 1.07, CCCCCCCCCn1c[n+](CCCCCCCCC)c2cc(C)c(C)cc21.[Br-] 0.716, CCNC(=O)n1cc(Cl)cn1 1.08, CC(C)(C)C(=O)CSc1nnc(-c2cccs2)o1 0.983, Sc1nnc(C2CCCCC2)n1/N=C\c1c[nH]c2ccccc12 0.608, NCCCCCCNc1nc2c(=O)[nH]cnc2n1C1OC(CO)C(O)C1O (stereo unspecified) 0.825, Oc1c(Br)cc(Br)cc1/C=N\c1ccccn1 0.999, CN(/N=C\c1ccccc1F)C1=NS(=O)(=O)c2ccccc21 1.71, CN(CC/C(N)=N/O)C(=O)c1ccco1 1.14, CC(=O)Nc1nc(CSCc2n[nH]c(=O)[nH]2)cs1 1.05, [Br-].c1ccc(Cc2ccc[n+](Cc3ccccn3)c2)cc1 1.13, O=c1[nH]cnc2cc3c(=O)[nH]cnc3cc12 1.21, Cc1noc2c1C(c1ccsc1)C(C#N)=C(N)N2 (stereo unspecified) 1.63
